The conditions of this data set: dogs, TMOM, average dose 2.7 mg/kg.

The structures appear in SMILES notation.

As to `CN(C)CCOC(c1ccccc1)c1ccccc1` [diphenhydramine], the plasma concentrations obtained result is recorded as “Significant concentrations”.

Values taken from patent US8940271B2, “Transmucosal administration of drug compositions for treating and preventing disorders in animals” (Abbott Laboratories, priority 2005, dated 2015).
